Data as given in PubChem BioAssay AID330 (DTP/NCI, 2004).
The list shows only some results of the screen, not a fair sample: it gathers tests that were run many times, whatever their T/C, doses with no T/C, and many T/C values between a quarter and a half above the control. Other doses and runs of a compound stand elsewhere. T/C: endpoint of the treated group in % of that of the vehicle group. Some doses have a count of surviving animals in place of a T/C: the source files T/C as zero there, which appears to mark a toxic dose or a test without result, not a measured value. Some doses without a T/C left all or most animals alive at the check, yet need not have been tolerated: survival well below the control is almost never listed, so the zero probably covers shortened survival too. Counts of survivors are from the toxicity check (mostly the fifth day) where no day follows; animals may have died later. Schedules are NCI's codes, read here as Q, the interval in days (D) or hours (H), X, the number of doses. Some structures stand for samples that the source files as different forms (salt, stereo form or complex); doses refer to the form tested. Where survival is the endpoint, the PubChem record calls one and a half times the control and up active, and a quarter to a half above the control has no call in these data; cut-offs in other NCI protocols can differ. Some T/C values are followed by the survivors on the day toxicity was checked, most often the fifth; where none is given, no animal had died by that day. Some entries hold several experiments; the values are given in rising order.

Test system: P388 leukemia ip, CD2F1 mice, survival T/C
Assay: NCI In Vivo Anticancer Drug Screen. Data for tumor model P388 Leukemia (intraperitoneal) in CD2F1 (CDF1) mice
Conditions: T/C endpoint: median survival time, higher T/C = longer survival
[1] = dose: 25.0 mg/kg/injection, schedule: Q01DX009 (ip), vehicle: saline
[2] = dose: 50.0 mg/kg/injection, schedule: Q01DX005 (ip), vehicle: Klucel (hydroxypropylcellulose) (HPC)
[3] = dose: 50.0 mg/kg/injection, schedule: Q01DX009 (ip), vehicle: saline
[4] = dose: 100.0 mg/kg/injection, schedule: Q01DX005 (ip), vehicle: Klucel (hydroxypropylcellulose) (HPC)
[5] = dose: 200.0 mg/kg/injection, schedule: Q01DX005 (ip), vehicle: Klucel (hydroxypropylcellulose) (HPC)
[6] = dose: 400.0 mg/kg/injection, schedule: Q01DX009 (ip), vehicle: saline with Tween-80
[7] = dose: 240.0 mg/kg/injection, schedule: Q01DX005 (ip), vehicle: Klucel (hydroxypropylcellulose) (HPC)
[8] = dose: 100.0 mg/kg/injection, schedule: Q01DX009 (ip), vehicle: saline with Tween-80
[9] = dose: 200.0 mg/kg/injection, schedule: Q01DX009 (ip), vehicle: saline with Tween-80
[10] = dose: 50.0 mg/kg/injection, schedule: Q01DX005 (ip), vehicle: saline with Tween-80
[11] = dose: 100.0 mg/kg/injection, schedule: Q01DX005 (ip), vehicle: saline with Tween-80
[12] = dose: 50.0 mg/kg/injection, schedule: Q01DX009 (ip), vehicle: Klucel (hydroxypropylcellulose) (HPC)

Compound: CCN(CC)C(=NC(C)(C)C)c1ccccc1
- survivor count (dose: 6.25 mg/kg/injection, schedule: Q01DX009 (ip), vehicle: saline): 6 of 6
- T/C (dose: 12.5 mg/kg/injection, schedule: Q01DX009 (ip), vehicle: saline): 86, 94, 101 [5 of 6 alive], 121 % of control
- T/C [1]: 88 [5 of 6 alive], 101, 111 % of control
- survivor count [1]: 2 of 6
- survivor count [2]: 1 of 5
- survivor count [3]: 0 of 6
- survivor count [4]: 0 of 5
- survivor count (dose: 100.0 mg/kg/injection, schedule: Q01DX009 (ip), vehicle: saline): 3 of 6
- survivor count [5]: 0 of 5
- survivor count (dose: 200.0 mg/kg/injection, schedule: Q01DX009 (ip), vehicle: saline): 0 of 6

Compound: Cc1ccc(N2CCN(C(=O)C3=Cc4ccccc4OC3)CC2)cc1C
- survivor count (dose: 400.0 mg/kg/injection, schedule: Q04DX003 (ip), vehicle: Klucel (hydroxypropylcellulose) (HPC)): 1 of 6

Compound: CCOC(=O)C(C)(C)Oc1ccc(Cl)cc1
- T/C [6]: 128 % of control

Compound: COc1cc2c(c(OC)c1OC)-c1cc3c(cc1CC1COC(=O)N1C2)OCO3 (configuration not stated)
- survivor count [7]: 1 of 6

Compound: CCC1CN2CCC3(C(=O)Nc4ccccc43)C2CC1/C(=C/OC)C(=O)OC (configuration not stated)
- survivor count [8]: 2 of 6
- survivor count [9]: 0 of 6
- survivor count [6]: 0 of 6

Compound: COc1cc2c(C)c[n+]3cc4cc5c(OC)c(OC)ccc5cc4cc3c2cc1OC (tested in a mixture with another compound)
- survivor count (dose: 50.0 mg/kg/injection, schedule: Q04DX003 (ip), vehicle: distilled water + Tween-80): 1 of 6

Compound: Cc1cc(N)c(C)c(C)c1O
- survivor count [8]: 3 of 6

Compound: COc1cccc2c(NCCCN(C)CCCNc3c4ccccc4nc4c(OC)cccc34)c3ccccc3nc12
- T/C (dose: 5.0 mg/kg/injection, schedule: Q01DX009 (ip), vehicle: water): 127 % of control
- survivor count (dose: 20.0 mg/kg/injection, schedule: Q01DX009 (ip), vehicle: water): 5 of 6

Compound: C#CCN1CCCCC1
- survivor count (dose: 100.0 mg/kg/injection, schedule: Q01DX005 (ip), vehicle: saline): 0 of 6
- survivor count (dose: 200.0 mg/kg/injection, schedule: Q01DX005 (ip), vehicle: saline): 0 of 6

Compound: [Cl][Sn]([O][Sn]([Cl])([c]1ccccc1)[CH]1CCCCC1)([c]1ccccc1)[CH]1CCCCC1 (configuration not stated)
- T/C (dose: 0.78 mg/kg/injection, schedule: Q01DX005 (ip), vehicle: saline): 134 % of control
- T/C (dose: 1.56 mg/kg/injection, schedule: Q01DX005 (ip), vehicle: saline, evaluated on day 20): 137 % of control
- T/C (dose: 1.56 mg/kg/injection, schedule: Q01DX005 (ip), vehicle: saline, evaluated on day 30): 136 % of control
- survivor count (dose: 3.12 mg/kg/injection, schedule: Q01DX005 (ip), vehicle: saline): 2 of 6
- survivor count (dose: 6.25 mg/kg/injection, schedule: Q01DX005 (ip), vehicle: saline): 0 of 6
- survivor count (dose: 12.5 mg/kg/injection, schedule: Q01DX005 (ip), vehicle: saline): 0 of 6
- survivor count (dose: 25.0 mg/kg/injection, schedule: Q01DX005 (ip), vehicle: saline): 0 of 6
- survivor count [2]: 0 of 6
- survivor count [4]: 0 of 6
- survivor count [5]: 0 of 6

Compound: CCc1nc(N)nc(N)c1-c1ccc([N+](=O)[O-])c(Cl)c1
- T/C [10]: 125 % of control

Compound: COc1cc(CC2c3cc(OC)c(OC)cc3CC[N+]2(C)C)c(Oc2cc(CC3c4cc(OC)c(OC)cc4CC[N+]3(C)C)ccc2OC)cc1OC (configuration not stated)
- survivor count (dose: 6.25 mg/kg/injection, schedule: Q04DX003 (ip), vehicle: saline with Tween-80): 0 of 6
- survivor count (dose: 6.25 mg/kg/injection, schedule: Q04DX003 (ip), vehicle: water): 2 of 6
- survivor count (dose: 12.5 mg/kg/injection, schedule: Q04DX003 (ip), vehicle: saline with Tween-80): 0 of 6
- survivor count (dose: 25.0 mg/kg/injection, schedule: Q04DX003 (ip), vehicle: saline with Tween-80): 0 of 6
- survivor count (dose: 50.0 mg/kg/injection, schedule: Q04DX003 (ip), vehicle: saline with Tween-80): 0 of 6
- survivor count (dose: 100.0 mg/kg/injection, schedule: Q04DX003 (ip), vehicle: saline with Tween-80): 0 of 6
- survivor count (dose: 200.0 mg/kg/injection, schedule: Q04DX003 (ip), vehicle: saline with Tween-80): 0 of 6
- survivor count (dose: 400.0 mg/kg/injection, schedule: Q04DX003 (ip), vehicle: saline with Tween-80): 0 of 6

Compound: C[C@@H]1C[C@@H]2c3cccc4[nH]cc(c34)C[C@H]2N(C)C1
- survivor count [10]: 3 of 6
- survivor count [11]: 0 of 6
- survivor count (dose: 200.0 mg/kg/injection, schedule: Q01DX005 (ip), vehicle: saline with Tween-80): 0 of 6

Compound: O=S(=O)(c1ccc(Cl)c(Cl)c1)N(c1cccc(C(F)(F)F)c1)S(=O)(=O)c1ccc(Cl)c(Cl)c1
- survivor count (dose: 50.0 mg/kg/injection, schedule: Q01DX009 (ip), vehicle: saline with Tween-80): 6 of 6
- survivor count [8]: 6 of 6
- survivor count [9]: 6 of 6

Compound: O=C(Nc1cccc(C(F)(F)F)c1)c1cc(Br)cc(Br)c1O
- survivor count [12]: 2 of 6

Compound: O=C1CC2OCCC3CN4CCC56c7ccccc7N1C5C2C3CC46 (configuration not stated)
- survivor count (dose: 60.0 mg/kg/injection, schedule: Q01DX005 (ip), vehicle: Klucel (hydroxypropylcellulose) (HPC)): 0 of 6
- survivor count (dose: 120.0 mg/kg/injection, schedule: Q01DX005 (ip), vehicle: Klucel (hydroxypropylcellulose) (HPC)): 0 of 6
- survivor count [7]: 0 of 6

Compound: CC(=O)c1ccccc1N=Nc1ccc(N(CCCl)CCCl)cc1C
- T/C [8]: 126 % of control
- T/C [9]: 131 % of control [5 of 6 alive]

Compound: O=[N+]([O-])c1cccnc1Sc1ccnc(Sc2ncccc2[N+](=O)[O-])n1
- survivor count [3]: 6 of 6
- survivor count [8]: 6 of 6

Compound: COC1=C2CC(C)CC(OC)C(O)C(C)/C=C(\C)C(OC(N)=O)C(OC)/C=C\C=C(/C)C(=O)NC(=C(C=NC(C)(C)C)C1=O)C2=O (configuration not stated)
- survivor count (dose: 120.0 mg/kg/injection, schedule: Q01DX005 (ip), vehicle: saline with Tween-80): 1 of 6
- survivor count (dose: 240.0 mg/kg/injection, schedule: Q01DX005 (ip), vehicle: saline with Tween-80): 0 of 6

Compound: CC1(C)CC2C=C(C=O)C3(C=O)CC3(C)C2C1 (configuration not stated)
- survivor count (dose: 12.5 mg/kg/injection, schedule: Q01DX009 (ip), vehicle: Klucel (hydroxypropylcellulose) (HPC)): 5 of 6
- survivor count (dose: 25.0 mg/kg/injection, schedule: Q01DX009 (ip), vehicle: Klucel (hydroxypropylcellulose) (HPC)): 5 of 6
- survivor count [12]: 1 of 6
- survivor count (dose: 100.0 mg/kg/injection, schedule: Q01DX009 (ip), vehicle: Klucel (hydroxypropylcellulose) (HPC)): 3 of 6

Compound: ClC1=C(Cl)C(Cl)=C(Cl)C1=C/C=C/c1ccccc1
- survivor count [9]: 5 of 6

Compound: C[C-]=O.C[C-]=O.[C-]#[O+].[C-]#[O+].[C-]#[O+].[C-]#[O+].[Re]
- survivor count [2]: 0 of 5
- survivor count [4]: 2 of 5
- survivor count [5]: 0 of 5

Compound: O=c1[nH]c(CN2CCCCC2)ccc1O
- survivor count (dose: 400.0 mg/kg/injection, schedule: Q01DX009 (ip), vehicle: saline): 0 of 6

Compound: N#CC1=CC2C3C(=O)N(c4ccccc4)C(=O)C3C1N(Cc1ccccc1)C2c1ccccc1 (configuration not stated)
- survivor count [11]: 6 of 6
- survivor count (dose: 100.0 mg/kg/injection, schedule: Q04DX002 (ip), vehicle: saline with Tween-80): 6 of 6

Compound: CC(C)(C)c1cc(C(=O)O)c(SSc2ccccc2)c(C(=O)O)c1
- survivor count (dose: 200.0 mg/kg/injection, schedule: Q04DX002 (ip), vehicle: Klucel (hydroxypropylcellulose) (HPC)): 5 of 6
- survivor count (dose: 400.0 mg/kg/injection, schedule: Q04DX002 (ip), vehicle: Klucel (hydroxypropylcellulose) (HPC)): 0 of 6

Compound: FC(F)(F)c1ccccc1N=Cc1ccc(C=Nc2ccccc2C(F)(F)F)cc1
- survivor count (dose: 200.0 mg/kg/injection, schedule: Q01DX009 (ip), vehicle: Klucel (hydroxypropylcellulose) (HPC)): 6 of 6

Compound: CC1=CSCC(=O)N1
- survivor count [6]: 3 of 6
